Measurements from paper PMC3061866.
Like-named read-outs stand apart in the source and are kept apart here. No constants are given. Whether binding was seen depends on the method and setting. In cells and extracts the contact can be indirect. A yes stands for co-enrichment or nearness to the bait. Other partners may have been found. No binding means not detected with the bait. Where a sequence is shown, tags or fusion partners need not be part of it. Values belong to the molecule of their own block, whether it stands above or below them.

What was measured:
Assay in all cases: affinity purification with mass spectrometry; anti-FLAG immunoprecipitation from extracts of S. pombe strains expressing Mis17-, Mis6- or Mis12-FLAG under the native promoter; extraction buffer 25 mM HEPES-KOH pH 7.5, 200 mM NaCl, 10% glycerol, 0.1% NP-40, 1 mM PMSF; 4-12% SDS-PAGE, gel slices, in-gel trypsin digestion, LC/MS/MS
Mis17-FLAG (S. pombe) [1] = molecular target: T1, Mis17-FLAG (S. pombe) (UniProt O94643)
T1 sequence: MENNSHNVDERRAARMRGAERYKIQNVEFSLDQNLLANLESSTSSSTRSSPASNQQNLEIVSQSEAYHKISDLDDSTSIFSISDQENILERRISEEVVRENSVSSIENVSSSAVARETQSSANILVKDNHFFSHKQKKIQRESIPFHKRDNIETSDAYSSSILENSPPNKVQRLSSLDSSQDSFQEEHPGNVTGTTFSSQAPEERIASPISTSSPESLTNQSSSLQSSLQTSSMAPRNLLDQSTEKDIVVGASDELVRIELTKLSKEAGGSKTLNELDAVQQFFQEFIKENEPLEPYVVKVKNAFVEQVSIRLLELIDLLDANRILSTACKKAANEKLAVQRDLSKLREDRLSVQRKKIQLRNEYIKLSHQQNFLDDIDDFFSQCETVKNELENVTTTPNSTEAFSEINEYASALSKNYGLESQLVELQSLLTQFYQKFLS

Mis6-FLAG (S. pombe) [2] = molecular target: T2, Mis6-FLAG (S. pombe) (UniProt P87227)
T2 sequence: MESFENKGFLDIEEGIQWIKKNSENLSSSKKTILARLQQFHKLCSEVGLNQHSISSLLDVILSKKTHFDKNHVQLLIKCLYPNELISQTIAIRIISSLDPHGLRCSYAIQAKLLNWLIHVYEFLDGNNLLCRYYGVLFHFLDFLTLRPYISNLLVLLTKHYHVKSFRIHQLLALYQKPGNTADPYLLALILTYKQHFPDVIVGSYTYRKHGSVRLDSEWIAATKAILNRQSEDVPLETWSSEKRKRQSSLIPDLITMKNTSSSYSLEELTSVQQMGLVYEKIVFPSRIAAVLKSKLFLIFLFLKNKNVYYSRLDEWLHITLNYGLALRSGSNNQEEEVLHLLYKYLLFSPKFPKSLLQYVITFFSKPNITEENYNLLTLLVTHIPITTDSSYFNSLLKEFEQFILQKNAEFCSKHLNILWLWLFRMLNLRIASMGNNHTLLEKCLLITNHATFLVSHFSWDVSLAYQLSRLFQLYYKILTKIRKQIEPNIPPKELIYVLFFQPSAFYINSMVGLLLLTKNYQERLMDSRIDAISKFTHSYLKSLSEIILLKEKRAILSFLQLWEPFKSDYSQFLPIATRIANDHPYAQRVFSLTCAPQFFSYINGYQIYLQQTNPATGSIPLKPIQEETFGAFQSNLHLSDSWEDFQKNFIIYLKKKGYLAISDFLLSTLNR

Mis12-FLAG (S. pombe) [3] = molecular target: T3, Mis12-FLAG (S. pombe) (UniProt Q9Y738)
T3 sequence: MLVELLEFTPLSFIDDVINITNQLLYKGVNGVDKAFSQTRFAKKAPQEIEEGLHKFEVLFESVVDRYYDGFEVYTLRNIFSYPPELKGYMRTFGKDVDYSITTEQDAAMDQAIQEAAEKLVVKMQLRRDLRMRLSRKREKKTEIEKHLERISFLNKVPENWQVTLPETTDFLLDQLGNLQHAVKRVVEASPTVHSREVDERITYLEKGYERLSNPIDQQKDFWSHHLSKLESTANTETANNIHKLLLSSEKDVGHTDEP

Mis12-FLAG (S. pombe) [4] = molecular target: T3, Mis12-FLAG (S. pombe); remark: listed apart in the source
Mis17-FLAG (S. pombe) [5] = molecular target: T1, Mis17-FLAG (S. pombe); remark: listed apart in the source
Mis6-FLAG (S. pombe) [6] = molecular target: T2, Mis6-FLAG (S. pombe); remark: listed apart in the source

B2: Prp19 (protein, UniProt O14011 1-488)
chain: MFCSISGETPKEPVISRVSGNVYEKRLIEQVIRETSKDPVTQQECTLEDLVPVKVPDFVRPRPPSATSLPALLSLFQEEWDSVALEQFELRRNLTETKQELSTALYSLDAALRVISRLTKERDEAREALAKFSDNIGTVSSKTIEVQEVEMGESDDQLKTSLRSTVEKTFQELSSKRKRTKLQPKWATDDAVSQLLQATPSTILENLETESTTSFFPSPENSSFVLCLHKDELLCLDIQSNSTLKIFEGSALACCWLTSSKIAVATADAISIFEFPVSSSGLQSVGEPTSSIPIDEKVNFLQAHPSGEYLLAASNEKCYIFSLKSQVYNITVAQHITSLAVHPDGNLFVAGLENGELRFFETSSGNELTKFGPHSSPVKTLQFGENGYWLVVTTNDDSDIFIWDLRKSELVQKIPLQTKVAAVSLDITSQLLVSSDGETLYVHIYVKSSKSWRCMSQTHVSSISNLVWLNELHQLLFSTSNGAILRLG
binding (Mis12-FLAG (S. pombe) [4]): no binding | binding (Mis17-FLAG (S. pombe) [5]): binds | binding (Mis6-FLAG (S. pombe) [6]): binds

B3: Spc7 (protein, UniProt O59757 1-1364)
chain: MPTSPRRNSIATTDNVIGRNKSRKRPHSLGGPGALQELKEHTNPAKGILKSYSSFSVDPAFTGDEDFNDIHTQINNTVIGISSNVMAASKRLQMEDLQQLSRETSRKSLNRRVSFASHARVRWYPKDHQSDSEKSTSNHSTPERTFASDAKNHSPKGPTTTSFSRNETQSSPHSHSASIISDGSDMDIASPIRSTESDMVSEALNAGHPPPSLYPENDDLSIQNPTKALPEAEKALDVHDATREQVNDREETNMDLTIQFQEADSFLSHSESIKGLSSSEQGTVYSLKASHDPSNQTQLSSPNKSSSPTSIEISDFSKNNENHDQSENKEEEEDMMLTRPIEIPQHFSPIARPLTSQEAIVDMDITSNNINLSPVSHFSNGLDLQNLEEAPMNLTRPINANPHLTNHSPNDLTNGEEEMDTTSAFNIENSHLTLLSPIRPSSRSMEEQIMDLTQPISSTNAPTHLNEDDLNQFTSNISSSSKPRKDNNKTANSSKPIPDSEDFMDITRPFNILSPSKEALSEEQPMELTSTVFPCENSTSHLEVEEAAMDETVAFQIRGNNVELPSADKENAEREEIPSYSDKSENFNTTSFTNHERSPNGNNNLKFSKDPNSSSPSRHVVATPTDKLGTRKRRLRYSTSSFDQSTLRRNRLATIRNARKSISTLNDRELLPVNFFEKKVNSGLYKSVERSENYRLGATPLTAEKPFTTEKPLSSLPEEVSRQPTDDKGEQVSNADVDSGLSKTERLTIQQTNEIKHVPTNTTSSVKLPQQPSNEDEKERITTADYADSTSLERLESQEPNRNELVQVGSSNAGNTTSVGMNEHEKSPVKLSKGVSNVDTSLGASTINTNILNQDSGPNEEIPVGNEPEFDTMPTLPNVEPISLSDFLKMTGIEFLDNLTIAKRRETLLPNAEENKKCSIQELLESFYIQFPLLELYKFSCQQLQDYIAEGKDFVTKIEEETLKENPLLFYEYRKASSDMRVLMDSQFLMMKTFARLQAKGDWYEWREGLMQGIKHELNLNLTGMQRSLTHLMDVANVIHPYAQEIQERYNGSITTVQTLKKQKEFANQYDSTLLAQAQEKLEKLKVEVERRRRLLSEKEERRKELAIKIEQVTNSCSDLELRTNAEQDFYAKNQDFEFDEIKRYEEQLLNLKNELGWTIVSLTAGGIKLATNNTALSPYSAEVTVEILRQNFQVNVDIACKFPNESNACSSNVLEHVASSFSKWHSKVFSRNLRLLKKYLNDVSICWEQIVYLVQDFQRLWYHWPFLSVENDDKSIIINVELYLRSVSSKVKVVFGLPIDTIYQTTEVGKFYASTSVAVKQMYAESEGDSYVSEVLNTLSEVVHCTSTYALSSACLTVWNKYS
binding (Mis12-FLAG (S. pombe) [4]): binds | binding (Mis17-FLAG (S. pombe) [5]): no binding | binding (Mis6-FLAG (S. pombe) [6]): no binding

B5: Fta4 (protein, UniProt O94716 1-233)
chain: MDIYEHKKSFMERQIRLLNRPMRPPKDWKLPLKSGQLSESVVETVFQRLQLRIQKHAKLNYSHQATQHVAAQIRKLYEQNSAIEDITFLNPLFYGEIDLSNLDSVKSLPHPWPFQKESRPVEKDEEQEKFNRLTGELLGLLTTLSELEQERSELEQIEKMLEPFEDGPSSIHTNMWKKNPELISTLNSTNTMVAKINSLLRGVSFPSLNNDNQEASLEDEIRSQLFEKTISDD
binding (Mis12-FLAG (S. pombe) [4]): no binding | binding (Mis17-FLAG (S. pombe) [5]): binds | binding (Mis6-FLAG (S. pombe) [6]): binds

Other lines, results leading:

binding (Mis17-FLAG (S. pombe) [1]): no binding | binding (Mis6-FLAG (S. pombe) [2]): no binding
Molecule: Fta5 (S. pombe)

binding (Mis12-FLAG (S. pombe) [3]): no binding | binding (Mis17-FLAG (S. pombe) [1]): binds | binding (Mis6-FLAG (S. pombe) [2]): binds
Molecule: Sam50 (S. pombe)

binding (Mis12-FLAG (S. pombe) [4]): no binding | binding (Mis17-FLAG (S. pombe) [5]): binds | binding (Mis6-FLAG (S. pombe) [6]): binds
B1: Fta3 (protein, UniProt O94261 1-220)
chain: MDNNDQISNLCLGALQLLADQPISVISNEPSEEQRNEHVLKKWENNVLRHWKILFSLFMQTCGDSVQGNAAFSILNFMTTNSLVGQLYQRLYDESNSLGFISSPLNETEHLSEENLKIESSITFTSEEIEKEKENIKSVLLPSVQSISSSLELYASKESDYRSSIEGVLADLKLARARWEIVRNVTQILLLESGISFLENKKLAYIMDLCGDREDNYSSY

binding (Mis12-FLAG (S. pombe) [4]): no binding | binding (Mis17-FLAG (S. pombe) [5]): binds | binding (Mis6-FLAG (S. pombe) [6]): binds
B4: Fta6 (protein, UniProt Q9UTP3 1-59)
chain: MEDKYILLSAVETFKSRLEELLMQSAKVQKQTMLRKELASSMNDMASTVQEALNKKKSS

binding (Mis12-FLAG (S. pombe) [4]): binds | binding (Mis17-FLAG (S. pombe) [5]): no binding | binding (Mis6-FLAG (S. pombe) [6]): no binding
B6: Ndc80 (protein, UniProt Q10198 1-624)
chain: MQDSSSYARRYSQAPSSSNLRTTTFGFNGLGTSRTSLAPQRTLVNARQSIDPDGLSSRVLTPTMRPSLAPNTRRSSVRVSNASFISQTPNITSIKDPRPLSDRRYQQECATQVVNYLLESGFSQPLGLNNRFMPSTREFAAIFKHLYNKLDPNFRFGARYEEDVTTCLKALNYPFLDSISRSRLVAIGSPHVWPAILGMLHWVVSLIQCTEKAVAMVYTVEQNSLDDHLVDKVLFDYLVRTYHLYLDESPEESEPEKELKATFNQQNQDLYNQTEALKSTNEELINQIKSAEELDSAIQVLEERYRTMQRDEVKFQSAMSGMKSKMESRTNLMKQLQVNIEEKESQLQLLKEKRDSLKYQVENQDISISEFEKMVSEREQLDRNLNMIGSKISELRKEVFDTDLLIQASIDSLEKKVQKFNSLAYRIGIVPIAAIRSANNDFELEINPEGPNYINLDLKNKVRPFINEVRRSITLEFHEEQNKSLKLQEHVDTVNDLIAELQDELRGIESRLTSVLSECNMLRETASEEKNAFDAESDKLERELQQLKLSSHNSMLQLDQRIQSINIEADQIAHACMEYKNNIYKEVAFVLGEIIHFKLHVQDSLEDLKMDYQKELDDLSRSEL
